According to the supplement of paper PMC10849652:
This is one part of the list.

Sequences of proteins named here, by UniProt entry; tags and fusion partners are left off. A change or cut given only in a name is not applied to a line headed by its entry.
UniProt Q15785: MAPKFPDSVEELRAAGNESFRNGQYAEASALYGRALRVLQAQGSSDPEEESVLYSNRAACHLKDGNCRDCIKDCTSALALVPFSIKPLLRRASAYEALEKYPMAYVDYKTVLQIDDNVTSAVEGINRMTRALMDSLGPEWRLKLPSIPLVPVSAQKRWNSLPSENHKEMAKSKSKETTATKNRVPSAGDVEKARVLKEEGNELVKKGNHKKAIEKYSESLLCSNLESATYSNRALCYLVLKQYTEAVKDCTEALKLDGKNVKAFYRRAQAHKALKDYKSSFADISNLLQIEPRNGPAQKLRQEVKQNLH
UniProt Q9BRZ2: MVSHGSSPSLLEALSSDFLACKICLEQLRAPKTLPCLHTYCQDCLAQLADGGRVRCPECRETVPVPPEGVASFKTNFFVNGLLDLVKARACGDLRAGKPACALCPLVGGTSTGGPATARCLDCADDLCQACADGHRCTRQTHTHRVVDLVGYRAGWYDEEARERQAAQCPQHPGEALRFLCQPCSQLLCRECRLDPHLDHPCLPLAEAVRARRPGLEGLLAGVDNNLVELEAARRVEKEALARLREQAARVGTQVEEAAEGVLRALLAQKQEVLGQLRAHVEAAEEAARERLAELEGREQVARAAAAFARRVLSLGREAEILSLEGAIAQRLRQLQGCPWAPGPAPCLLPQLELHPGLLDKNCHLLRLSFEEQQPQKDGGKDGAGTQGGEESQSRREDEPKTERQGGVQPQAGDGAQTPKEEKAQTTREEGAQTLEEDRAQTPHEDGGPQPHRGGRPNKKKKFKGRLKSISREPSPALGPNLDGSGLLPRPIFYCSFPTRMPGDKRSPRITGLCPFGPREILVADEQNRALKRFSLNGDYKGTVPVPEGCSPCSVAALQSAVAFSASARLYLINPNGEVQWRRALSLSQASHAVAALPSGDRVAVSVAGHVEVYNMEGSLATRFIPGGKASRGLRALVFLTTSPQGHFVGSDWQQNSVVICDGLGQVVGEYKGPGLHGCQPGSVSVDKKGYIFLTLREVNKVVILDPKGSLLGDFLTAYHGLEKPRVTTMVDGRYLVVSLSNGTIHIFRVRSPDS
UniProt Q6Q0C0: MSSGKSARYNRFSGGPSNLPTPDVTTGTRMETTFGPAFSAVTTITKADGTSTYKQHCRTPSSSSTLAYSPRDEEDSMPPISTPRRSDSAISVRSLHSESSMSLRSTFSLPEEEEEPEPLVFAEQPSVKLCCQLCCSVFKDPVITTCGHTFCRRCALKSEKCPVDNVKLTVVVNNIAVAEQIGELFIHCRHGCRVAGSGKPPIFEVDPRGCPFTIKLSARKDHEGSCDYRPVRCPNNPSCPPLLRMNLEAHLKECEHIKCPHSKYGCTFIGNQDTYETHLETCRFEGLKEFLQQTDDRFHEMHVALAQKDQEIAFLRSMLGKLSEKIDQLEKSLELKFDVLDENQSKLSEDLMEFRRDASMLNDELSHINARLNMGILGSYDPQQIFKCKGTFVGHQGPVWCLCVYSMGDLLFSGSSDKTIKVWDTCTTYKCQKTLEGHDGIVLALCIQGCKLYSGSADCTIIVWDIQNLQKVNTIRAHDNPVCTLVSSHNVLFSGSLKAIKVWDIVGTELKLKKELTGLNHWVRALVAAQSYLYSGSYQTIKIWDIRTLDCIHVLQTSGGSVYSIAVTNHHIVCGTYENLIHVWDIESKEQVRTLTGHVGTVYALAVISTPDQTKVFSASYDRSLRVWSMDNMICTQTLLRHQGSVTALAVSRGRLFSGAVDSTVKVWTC

Assays:
Assay in all cases: log2 fold change, soluble protein after heating vs DMSO (PISA); higher = thermal stabilisation; K562 cells, 10 uM, 30 min; active = over 0.2 and 3.5 SD of the protein, either way, in both replicates (recomputed)
[1] = compound: NC(=O)Nc1cc(-c2cccc(F)c2)sc1C(=O)N[C@H]1CCCNC1
In short: (§1)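 Values are thermal stability changes relative to control samples and are taken from duplicates. They are stated as log2 fold changes. Before quantification by TMTpro 16plex LC-MS/MS with equalised channel sums, K562 cells at 2×10^6 cells/mL were treated with 10 μM compound for 30 min, heated in aliquots for 3 min across 48°C-58°C, pooled, extracted in PBS with 0.5% NP-40 at 4°C, and centrifuged at 21,000xg for 90 min to give the soluble supernatant.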

[2] = compound: NC(=O)c1cnc(N[C@@H]2CCCC[C@@H]2N)nc1Nc1cccc(-n2nccn2)c1
In short: as §1

[3] = compound: NC1(c2ccc(-c3nc4ccn5c(=O)[nH]nc5c4cc3-c3ccccc3)cc2)CCC1
In short: as §1

[4] = compound: NCC(=O)Nc1ccc(-n2nc(C(F)(F)F)cc2-c2ccc3c(ccc4ccccc43)c2)cc1
In short: as §1

entinostat = compound: Nc1ccccc1NC(=O)c1ccc(CNC(=O)OCc2cccnc2)cc1 [entinostat]
In short: as §1

citarinostat = compound: O=C(CCCCCCNC(=O)c1cnc(N(c2ccccc2)c2ccccc2Cl)nc1)NO [citarinostat]
In short: as §1

silmitasertib = compound: O=C(O)c1ccc2c(c1)nc(Nc1cccc(Cl)c1)c1ccncc12 [silmitasertib]
In short: as §1

[5] = compound: O=C1NC(=O)C(c2cnc3ccccn23)=C1c1cn2c3c(cc(F)cc13)CN(C(=O)N1CCCCC1)CC2
In short: as §1

[6] = compound: c1cc(OCCN2CCCCC2)cc(-c2n[nH]c3ccc(-c4nnc[nH]4)cc23)c1
In short: as §1

entospletinib = compound: c1cn2cc(-c3ccc4cn[nH]c4c3)nc(Nc3ccc(N4CCOCC4)cc3)c2n1 [entospletinib]
In short: as §1

vorinostat = compound: O=C(CCCCCCC(=O)Nc1ccccc1)NO [vorinostat]
In short: as §1

Measured: log2 fold change

TPP2 (UniProt Q5VZU9)
inactive: [1] 0.033 | [2] 0.306 | [3] 0.188 | [4] 0.118 | entinostat -0.074 | citarinostat -0.08 | silmitasertib 0.07 | [5] 0.269 | [6] -0.274 | entospletinib 0.023

TOMM34 (UniProt Q15785)
inactive: [1] -0.106 | [2] -0.03 | [3] 0.051 | [4] -0.054 | entinostat 0.024 | vorinostat 0.054 | citarinostat 0.05 | silmitasertib 0.117 | [5] 0.015 | [6] -0.024 | entospletinib 0.02

TPCN1 isoform 3 (UniProt Q9ULQ1)
inactive: [1] 0.059 | [2] -0.016 | [3] -0.261 | [4] 0.066 | entinostat -0.382 | vorinostat 0.265 | silmitasertib 0.054 | [5] -0.031

TRIM56 (UniProt Q9BRZ2)
inactive: [1] -0.036 | [2] -0.025 | [3] 0.176 | entinostat 0.13 | vorinostat 0.05 | citarinostat -0.096 | silmitasertib 0.104 | [5] 0.239 | [6] -0.21 | entospletinib 0.038

TRAF7 (UniProt Q6Q0C0)
inactive: [1] -0.03 | [2] -0.019 | [3] -0.181 | [4] 0.188 | entinostat -0.035 | silmitasertib -0.002 | [5] -0.049
